The assay deals with T1, vascular endothelial (VE)-cadherin (human (endogenous in BLM, A375, MDA-MB-468, SKBR3)) (UniProt P33151).
T1 sequence: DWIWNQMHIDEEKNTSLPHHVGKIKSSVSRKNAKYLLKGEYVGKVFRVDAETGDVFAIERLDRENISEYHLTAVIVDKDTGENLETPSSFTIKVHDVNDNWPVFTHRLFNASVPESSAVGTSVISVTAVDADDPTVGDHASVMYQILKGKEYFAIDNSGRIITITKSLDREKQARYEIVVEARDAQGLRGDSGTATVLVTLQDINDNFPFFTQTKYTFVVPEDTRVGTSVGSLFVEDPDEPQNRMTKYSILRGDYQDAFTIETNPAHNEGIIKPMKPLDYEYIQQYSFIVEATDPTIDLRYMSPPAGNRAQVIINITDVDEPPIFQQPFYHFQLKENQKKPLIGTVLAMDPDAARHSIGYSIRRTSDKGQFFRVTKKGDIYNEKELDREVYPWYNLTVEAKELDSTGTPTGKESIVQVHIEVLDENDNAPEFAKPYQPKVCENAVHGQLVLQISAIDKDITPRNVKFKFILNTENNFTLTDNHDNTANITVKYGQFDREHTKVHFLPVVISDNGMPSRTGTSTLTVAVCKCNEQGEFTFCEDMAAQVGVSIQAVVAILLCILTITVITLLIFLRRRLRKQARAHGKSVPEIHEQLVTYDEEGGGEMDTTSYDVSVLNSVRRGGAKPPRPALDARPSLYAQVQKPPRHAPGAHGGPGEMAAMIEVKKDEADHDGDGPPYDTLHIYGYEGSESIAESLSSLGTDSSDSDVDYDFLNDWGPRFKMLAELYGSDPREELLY
The assay is described as follows: co-IP; 500 μg of lysate (1% Igepal, 100 mM NaCl, 2 mM MgCl2, 10% glycerol, 50 mM Tris-HCl) of BLM and MDA-MB-468 cells (Figure 3b also A375 and SKBR3), immunoprecipitated with anti-VE-cadherin, anti-α2 integrin, anti-αv integrin or control antibodies and protein G sepharose; western blot; also after siRNA against α2 or αv integrin. On the technique in general: In western blotting, separated proteins are transferred to a membrane and probed.

Protein sequences, listed by entry. Tags and fused reporters are not part of them. Lines headed by an entry give the natural chain unless they say otherwise; changes in a name come on top.
UniProt P17301: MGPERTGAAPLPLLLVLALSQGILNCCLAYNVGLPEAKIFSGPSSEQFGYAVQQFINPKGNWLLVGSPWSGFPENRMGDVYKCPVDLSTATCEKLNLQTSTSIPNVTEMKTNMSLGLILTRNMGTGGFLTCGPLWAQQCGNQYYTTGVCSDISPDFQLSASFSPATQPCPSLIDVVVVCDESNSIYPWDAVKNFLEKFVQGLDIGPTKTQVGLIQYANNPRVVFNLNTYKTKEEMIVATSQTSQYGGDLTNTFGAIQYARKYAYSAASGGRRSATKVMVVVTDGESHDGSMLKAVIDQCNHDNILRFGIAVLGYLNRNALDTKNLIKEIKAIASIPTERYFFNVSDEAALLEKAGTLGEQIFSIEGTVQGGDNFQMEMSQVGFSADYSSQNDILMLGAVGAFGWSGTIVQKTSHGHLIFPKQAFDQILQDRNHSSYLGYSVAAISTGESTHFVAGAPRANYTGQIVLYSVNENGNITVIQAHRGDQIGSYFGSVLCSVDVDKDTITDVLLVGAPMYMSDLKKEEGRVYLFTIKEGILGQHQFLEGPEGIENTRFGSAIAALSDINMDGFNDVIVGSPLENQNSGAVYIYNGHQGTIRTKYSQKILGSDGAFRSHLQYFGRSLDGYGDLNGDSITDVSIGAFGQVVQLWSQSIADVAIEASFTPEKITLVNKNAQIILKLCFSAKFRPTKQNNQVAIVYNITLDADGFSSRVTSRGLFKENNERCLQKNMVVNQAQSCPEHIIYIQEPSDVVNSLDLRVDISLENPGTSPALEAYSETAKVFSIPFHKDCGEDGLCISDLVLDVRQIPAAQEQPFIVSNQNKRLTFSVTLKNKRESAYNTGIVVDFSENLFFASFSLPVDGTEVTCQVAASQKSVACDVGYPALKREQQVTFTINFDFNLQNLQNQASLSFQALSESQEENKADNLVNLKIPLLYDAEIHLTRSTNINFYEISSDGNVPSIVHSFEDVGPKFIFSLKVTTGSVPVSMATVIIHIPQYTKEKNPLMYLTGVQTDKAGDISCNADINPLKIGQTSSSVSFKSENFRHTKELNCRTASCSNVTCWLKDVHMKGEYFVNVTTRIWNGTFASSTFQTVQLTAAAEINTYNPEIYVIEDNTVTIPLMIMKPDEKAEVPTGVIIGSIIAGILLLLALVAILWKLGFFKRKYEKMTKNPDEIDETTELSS

Results are given in words; binding and its absence hold for the method and conditions named. In cells and extracts the contact can be indirect. Some entries that bind do so weakly or less than the wild type.

Binding data for one substance are collected here from article PMC5352113.

On to “α2β1 integrin (from UniProt P17301 30-1181; P05556 21-798) (complex)”, for which the binding result was “binds”.
